Measurements from “University of Dundee, Small-Polar-MMV Screening Library” (2021), ChEMBL document CHEMBL3988442.

The chains behind the UniProt entries cited, without tags or fusion partners.
UniProt E9BF75, entry or part of it: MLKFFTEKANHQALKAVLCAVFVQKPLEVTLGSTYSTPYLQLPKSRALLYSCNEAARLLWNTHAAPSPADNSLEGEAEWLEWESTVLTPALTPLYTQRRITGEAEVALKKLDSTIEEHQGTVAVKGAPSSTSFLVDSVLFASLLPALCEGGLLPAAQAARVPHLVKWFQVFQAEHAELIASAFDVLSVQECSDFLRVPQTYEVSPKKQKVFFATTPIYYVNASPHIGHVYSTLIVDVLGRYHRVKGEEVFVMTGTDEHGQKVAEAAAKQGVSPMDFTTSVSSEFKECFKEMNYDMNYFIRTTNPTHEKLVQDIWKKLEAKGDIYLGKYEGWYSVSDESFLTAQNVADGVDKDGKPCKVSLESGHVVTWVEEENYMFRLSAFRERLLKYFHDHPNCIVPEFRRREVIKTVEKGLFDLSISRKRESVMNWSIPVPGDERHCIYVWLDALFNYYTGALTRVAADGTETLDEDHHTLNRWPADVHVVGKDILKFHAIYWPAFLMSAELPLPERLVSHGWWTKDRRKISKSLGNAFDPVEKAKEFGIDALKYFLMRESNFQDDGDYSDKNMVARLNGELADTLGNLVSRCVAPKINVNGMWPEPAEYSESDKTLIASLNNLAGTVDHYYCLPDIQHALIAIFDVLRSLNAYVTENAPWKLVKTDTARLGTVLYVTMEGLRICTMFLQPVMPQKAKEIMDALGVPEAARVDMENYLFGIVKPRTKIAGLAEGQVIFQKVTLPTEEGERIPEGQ

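Primary screen of methionyl-tRNA synthetase; the read-out is not stated. Target: Methionyl-tRNA synthetase (putative), Leishmania donovani (UniProt E9BF75). The test concentration is not given. The values are filed as inhibition. About 68,000 compounds were tested under these conditions; 0.035% (about 24) showed 50% or more at least once.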

Results are percentages, as filed.
How 0% and 100% were set is not recorded. Most values in the screen are low, and negative values occur.
Compounds were drawn at random from those tested, without regard to their results.

Compound	Inhibition
Cn1nccc1CN1CCCC(COc2ccccc2F)C1 (stereo not shown)	18.99%
CCOC(=O)C1CN(S(C)(=O)=O)Cc2ncn(CC)c21 (stereo not shown)	-5.263%
Cc1cnc(N2CCC3(CC2)CC(N(C)Cc2ccncc2)C3)nc1	16.79%
NS(=O)(=O)c1ccc(NCc2ccco2)c2ncccc12	7.062%
CN(CCc1cccs1)CCc1nccs1	11.02%
Cc1ccc(-c2nc(CN3CCCC3Cn3cc(C)cn3)no2)cc1 (stereo not shown)	6.294%
C=C(C)CN(CC)C(=O)c1cc(F)ccc1NS(C)(=O)=O	23.4%
CN(Cc1nncn1C)C(=O)c1cc(COc2ccccc2)[nH]n1	10.57%
CC(C)c1nc(C2CCCN(C(=O)c3ccc4nncn4c3)C2)no1 (stereo not shown)	14.75%
CN(Cc1ccccc1F)C(=O)CS(=O)(=O)Cc1ccc(Cl)c(Cl)c1	11.11%
Cc1ncncc1C(=O)NCCN1CCC(C)CC1	6.203%
CCOCCCNc1cc(C)nn2cnnc12	3.266%
Cc1nc2n(n1)CCN(S(=O)(=O)c1ccc(OC(F)(F)F)cc1)C2	12.04%
CC(C)C(=O)N1CCCC1C(=O)Nc1ccc(F)c(F)c1 (stereo not shown)	7.614%
Cc1cc(CS(=O)(=O)C(C)C(=O)N(C)c2ccccc2)on1 (stereo not shown)	11.98%
CCc1n[nH]c(=O)c(C(=O)N2CCSC(C)(C)C2)c1CC	9.065%
CC(=O)N1CCCC(c2ccc(Cc3ccccc3)cn2)C1 (stereo not shown)	3.236%
CCC(=O)Nc1ccc(F)c(S(=O)(=O)NC(C)(C)C)c1	5.651%
O=C(Cn1nc2c(cc1=O)CSCC2)N[C@@H](Cc1ccccc1)C(=O)O	16.28%
COc1ccc(Cl)cc1NCC(=O)NCCNc1ncccn1	20%
COCCN(C)C[C@@H]1CN(C(=O)c2ccc(OC)c(F)c2)C[C@@H]1CO	14.08%
COc1ccccc1C(O)CNCc1c(C(C)C)nn(C)c1N(C)C (stereo not shown)	17.41%
COCCNC(=O)NCc1ccc(-n2ccc(C(F)(F)F)n2)cc1	15.54%
Cc1nc2cc(=O)[nH]n2c(C)c1CNC(=O)C(C)(C)c1ccccc1	8.02%
Cc1ncsc1C(=O)OCC1CCN(c2ccccc2)C1 (stereo not shown)	20.36%
CN(C)CCOCC1CN(C(=O)[C@H]2CCCO2)Cc2ccnn2C1 (stereo partly shown)	15.48%
COc1cccc(CNC(=O)Cn2ccc3c(C)nn(C)c3c2=O)c1	11.63%
O=C(O)[C@@H]1CCN(C(=O)c2ccccn2)[C@@H]1c1ccc(F)cc1	8.924%
O=C(c1ccc(Cn2cc(Br)cn2)cc1)N1CCOCC1	18.05%
COCC(=O)NCCC(=O)N1CCN(S(=O)(=O)c2cccc(Br)c2)CC1	5.897%
COCC1Cn2nnc(-c3cnn(C)c3)c2CN1Cc1cccs1 (stereo not shown)	10.58%
Cc1ccccc1C1(C(=O)NCCN(C)C)CCOCC1	18.2%
CS(=O)(=O)N1C[C@H]2CNC[C@@]2(C(=O)NCCOc2ccccc2)C1	15.47%
OCC1(O)CCN(Cc2ccc(-c3cc[nH]n3)s2)CC1	10.27%
O=S(=O)(Cc1ccccc1F)NC(CO)c1ccco1 (stereo not shown)	5.866%
COc1ccc(NC(=O)c2ccoc2C)c(N2CCN(C(C)=O)CC2)n1	7.692%
CN(CCOc1ccccc1Cl)S(=O)(=O)N1CCOCC1	1.95%
CCCc1nnsc1C(=O)NCC1CCN(c2ncccn2)CC1	10.84%
O=C(NCc1ccccn1)c1nnn(-c2ccc(Br)cc2)n1	20.59%
Cc1ccc(N2CCC3(CCN(C(N)=O)CC3)CC2)nn1	10.73%
O=C(C1CCOCC1)N1CCc2ncc(CN3CCOCC3)n2CC1	10.95%
O=C(Nc1ccccc1)C1CN(CC2CCOCC2)CC12CCOCC2 (stereo not shown)	6.452%
O=C(c1cccc2c1OCCO2)N1CCCCC1Cn1cccn1 (stereo not shown)	5.842%
COC1COC2(CCN(Cc3ccco3)CC2)C1 (stereo not shown)	12.78%
COCC1CN(CC2CC2)Cc2nccn2C1 (stereo not shown)	11.33%
Cc1cn2c(n1)C(CNCC1=Cc3ccccc3OC1)CCC2 (stereo not shown)	13.71%
Cc1cc(NC(=O)N2CCCC(O)C2)nn1-c1ccccc1Cl (stereo not shown)	6.211%
CN(C)CCC1CN(C(=O)c2cccc3c2OCC3)CCO1 (stereo not shown)	-3.046%
COc1ccccc1CCNC(=O)CC1(Cn2cnnn2)CCCCC1	6.997%
CNc1cc(CCNC(=O)CC(C)C)nc(-c2ccccn2)n1	14.69%
Cc1nn(C)c2ncc(CNCCc3ccccn3)cc12	6.178%
Cc1ccccc1CC1(C(=O)O)CCCN(c2ncnc3[nH]ccc23)C1 (stereo not shown)	11.04%
CC1=Nc2c(c(=O)[nH]n2C2CCOCC2)C(c2cccc(O)c2)S1 (stereo not shown)	11.63%
COCCN1CCC2(CCN(Cc3ccc(OC)cc3)CC2)C1=O	1.681%
Cc1n[nH]c2c1C(c1ccncc1)SCC(=O)N2 (stereo not shown)	4.393%
CNC(=O)c1ccc(=O)n(Cc2csc(N(C)C(C)=O)n2)c1	4.61%
Cc1noc(C)c1CN1CC[C@H]2OCC[C@@H](C(=O)NCC3CC3)[C@@H]2C1	17.99%
c1cnc(-c2cnc(N3CCCCC3)nc2C2CCCO2)cn1 (stereo not shown)	15.53%
CCOCC1CN(C(=O)c2ccncn2)Cc2cnn(CC)c21 (stereo not shown)	6.667%